The target in the assay is rat endothelin receptor (rat). Kind of assay: binding to COS-7 cells transfected with the isolated cDNA clone.

No constants are given. Whether binding was seen depends on the method and setting. A result given as binding can be weak or reduced; the word gives no strength.

In the case of CTCFTYKDKECVYYCHLDIIW (peptide, UniProt P14138 97-117, looked up) [endothelin-3], the binding result is “binds”.
